These results are taken from US20090098142A1.

Protein sequences, listed by entry. Tags and fused reporters are not part of them. Lines headed by an entry give the natural chain unless they say otherwise; changes in a name come on top.
UniProt P35225: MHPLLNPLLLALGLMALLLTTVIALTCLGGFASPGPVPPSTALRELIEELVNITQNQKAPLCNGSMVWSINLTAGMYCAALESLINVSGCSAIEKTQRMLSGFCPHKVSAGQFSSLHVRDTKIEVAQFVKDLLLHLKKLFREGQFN

No constants are given. Whether binding was seen depends on the method and setting. Some entries that bind do so weakly or less than the wild type.

The target of experiment [1] is cynomolgus monkey IL-13 (NHP IL-13) (cynomolgus monkey). Description: direct NHP IL-13 binding ELISA. For orientation: In an ELISA, binding on a coated surface is turned into a signal by an enzyme label.
The target of experiment [2] is recombinant human R110Q IL-13 (human) (UniProt P35225). Description: ELISA for the complex in BAL and serum.
The target is the same in experiment [3]. Description: ELISA for the complex: mAb13.2 capture, anti-human IgG (Fc specific) detection.
Experiment [4] has the same target. Nature of the experiment: sandwich ELISA for human IL-13 in BAL and serum of mice given R110Q IL-13, detector antibody.

B1: humanized MJ 2-7 V4 (hMJ 2-7 VH V1 with hMJ 2-7 VL V4) (antibody, V domains shown)
VH: QVQLVQSGAEVKKPGASVKVSCKASGFNIKDTYIHWVRQAPGQRLEWMGRIDPANDNIKYDPKFQGRVTITRDTSASTAYMELSSLRSEDTAVYYCARSEENWYDFFDYWGQGTLVTVSS
VL: DVVMTQSPLSLPVTPGEPASISCRSSQSIVHSNGNTYLEWYLQKPGQSPQLLIYKVSNRFSGVPDRFSGSGSGTDFTLKISRVEAEDVGVYYCFQSSHVPLTFGQGTKLEIK
B1: in experiment [1], the binding entry is listed as “binds”.

B2: humanized MJ 2-7 V2.11 IgG1 with a mutated CH2 domain (antibody, V domains shown)
VH: EVQLVESGGGLVQPGGSLRLSCAASGFNIKDTYIHWVRQAPGKGLEWIGRIDPANDNIKYDPKFQGRFTISADNAKNSAYLQMNSLRAEDTAVYYCARSEENWYDFFDYWGQGTLVTVSS
VL: DIQMTQSPSSLSASVGDRVTITCRSSQSIVHSNGNTYLEWYQQKPGKAPKLLIYKVSNRFSGVPSRFSGSGSGTDFTLTISSLQPEDFATYYCFQGSHIPYTFGGGTKVEIKR
As for B2, the binding result in experiment [2] and in experiment [3] was “binds” in each case.

B3: mouse monoclonal antibody C65 (antibody, V domains shown)
VH: QVQLKESGPGLVAPSQSLSITCTVSGFSLTGYGVNWVRQPPGKGLEWLGIIWGDGSTDYNSALKSRLIINKDNSKSQVFLKMNSLQTDDTARYFCARDKTFYYDGFYRGRMDYWGQGTSVTVSS
VL: DVQMIQSPSSLSASLGDIVTMTCQASQGTSINLNWFQQKPGKAPKLLIFGASNLEDGVPSRFSGSRYGTNFTLTISSLEDEDMATYFCLQHSYLPWTFGGGTKLEIK
On to B3, for which the binding result in experiment [4] is on record as “binds”.
